Hit rate of the full screen: of about 310,000 compounds, about 17,000 (5.5%) were called active. Inconclusive results, whose numbers are uncertain, are shown with a selection of clear calls. Calls come from the whole dose curve; as a rule, active = well fitted inhibition curve with a large enough effect; inconclusive = small, poorly fitted or top-dose-only effect, or effect the other way; inactive = no such curve, though single readings can be large or run the other way. Where the call is inconclusive, the potency comes from a doubtful curve fit.
Biological target: Nuclear receptor ROR-gamma (Mus musculus) (UniProt P51450)
Experiment: qHTS for inhibitors of ROR gamma transcriptional activity; note: nearly all actives have a fitted effect of over 60% in size
Details: Drosophila S2 Gal4-RORgamma UAS-luciferase reporter, 20 h; series mostly up to 53.6 µM
How it was run: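 ROR gamma transcriptional activity was tracked as Gal4-UAS luciferase output in stably transfected Drosophila Schneider cells, with compound added 1 hr before 700 uM copper sulfate induction and a 20 hr ambient-temperature incubation.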
Potency is the fitted concentration of half-maximal effect.

Protein sequences, listed by entry. Tags and fused reporters are not part of them. Lines headed by an entry give the natural chain unless they say otherwise; changes in a name come on top.
UniProt P51450: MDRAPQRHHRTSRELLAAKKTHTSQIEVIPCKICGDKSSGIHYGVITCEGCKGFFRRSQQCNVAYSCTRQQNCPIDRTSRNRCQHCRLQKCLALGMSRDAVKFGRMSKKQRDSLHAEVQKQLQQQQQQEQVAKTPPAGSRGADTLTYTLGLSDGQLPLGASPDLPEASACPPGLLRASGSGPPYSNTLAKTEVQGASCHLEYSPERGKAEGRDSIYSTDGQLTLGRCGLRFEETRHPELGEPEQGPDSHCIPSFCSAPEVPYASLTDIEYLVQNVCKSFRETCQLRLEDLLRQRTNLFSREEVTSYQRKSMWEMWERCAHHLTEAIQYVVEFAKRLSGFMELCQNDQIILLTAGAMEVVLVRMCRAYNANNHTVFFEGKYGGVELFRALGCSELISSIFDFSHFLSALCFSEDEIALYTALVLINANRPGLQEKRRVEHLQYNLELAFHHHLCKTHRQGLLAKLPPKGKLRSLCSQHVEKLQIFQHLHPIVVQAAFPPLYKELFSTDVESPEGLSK

Potency, active:
c1ccc(-c2[nH]ncc2-c2ccnc3ccccc23)nc1 2 µM
CCOC(=O)C1=C(C)N(CC)C(=S)NC1c1ccc(Cl)cc1 (centres undefined) 7.08 µM
C/C(=N\Nc1nccnc1Cl)c1ccc(F)cc1 5.62 µM
CCn1cc(-c2cc(C(=O)O)c3ccccc3n2)cn1 5.62 µM
C(=N\NC1=Nc2cccc3cccc1c23)/c1ccccc1 2.24 µM
CCN(CC)c1ccc(/C=N/NC(=S)NCc2ccc(OC)cc2)cc1 0.891 µM
Nc1[nH]c(N=NC(=O)c2ccc(Cl)cc2)c2ccccc12 5.62 µM
O=C(Nc1nccs1)c1ccc([N+](=O)[O-])cc1Cl 11.2 µM
C[C@H](NC(=O)c1nc[nH]c1C(=O)N[C@@H](CCCCNC(=O)OC(C)(C)C)C(=O)OC(C)(C)C)c1ccccc1 5.62 µM
CC1CC2=C(CC1/C=N/NC(N)=S)C(C)(C)CCC2 (centres undefined) 1.41 µM

In the list so far, two contain a carbonyl joined to an NH by a bond outside any ring:
Potency, active:
O=C(Nc1nccs1)c1ccc([N+](=O)[O-])cc1Cl 11.2 µM
C[C@H](NC(=O)c1nc[nH]c1C(=O)N[C@@H](CCCCNC(=O)OC(C)(C)C)C(=O)OC(C)(C)C)c1ccccc1 5.62 µM

Next part.

Potency, inconclusive:
COc1ccc2c(c1)CC/C2=N\NC(=O)c1ccccc1 20 µM [inhibitor, single point]
Cc1ccc(-c2cc(C(=O)NC3CCCC3)no2)cc1 22.4 µM [inhibitor, single point]
COc1cc(/C=N/OCC(=O)NC2CCCCC2)ccc1OCc1ccccc1 3.55 µM [activator, single point]
CCC(C(=O)NC1CCCCC1)n1c(SCc2cccc(C)c2)nc2ccncc21 (centres undefined) 25.1 µM [inhibitor, single point]
CC(C)(C)c1ccc(C(=O)N2CCN(Cc3ccccc3)CC2)cc1 12.6 µM [activator, single point]
O=C(CCCN1C(=O)c2cccc3cccc(c23)C1=O)N1CCN(c2ccccc2O)CC1 35.5 µM [activator, single point]
Cc1ccc(-n2nnnc2SCC(=O)NC2CCCc3ccccc32)c(C)c1 (centres undefined) 35.5 µM [activator, single point]
COc1ccc(OC)c(-c2cc(C(=O)Nc3c(C)nn(Cc4ccccc4C)c3C)no2)c1 20 µM [activator, single point]
C/C(=N\NC(=O)Nc1ccccc1)c1ccccc1 12.6 µM [activator, single point]
COc1ccc2c(c1)C=C(C(=O)OCc1cccnc1)CO2 14.1 µM [inhibitor, single point]
Cc1cc(=O)nc2c3ccccc3n(CC(=O)NCCCN3CCOCC3)n12 0.0071 µM [inhibitor, full curve, poor fit]
O=C(Cc1ccc(Br)cc1)NCCc1ccc(Cl)cc1Cl 10 µM [activator, partial curve, poor fit]
COc1ccc(CC(=O)Nc2cc(S(=O)(=O)N3CCCCC3)ccc2C)cc1OC 10 µM [activator, partial curve]
Cc1cc(C(=O)Cn2cnc3cc([N+](=O)[O-])ccc3c2=O)c(C)n1CC1CCCO1 (centres undefined) 12.6 µM [activator, single point]
CCOc1ccc(N2C(=O)C(CC(=O)Nc3ccc(F)cc3)N(Cc3ccccn3)C2=S)cc1 (centres undefined) 12.6 µM [activator, partial curve]
COc1ccc(CCNc2nc(-c3cccc(NC(C)=O)c3)cs2)cc1OC 12.6 µM [activator, single point]
COc1ccc(CCNC(=O)c2cc(=O)c3cc(C)ccc3o2)cc1OC 12.6 µM [activator, partial curve, poor fit]
CNC(=O)[C@H](C)[C@@H]1C[C@@]1(C)[C@@H](NC(=O)OCc1ccccc1)c1ccccc1 11.2 µM [activator, partial curve]
CO/N=C/C(C#N)c1ncc(C(F)(F)F)cc1Cl (centres undefined) 20 µM [inhibitor, single point]
Fc1ccc(-n2c(-c3ccc4ccccc4n3)n[nH]c2=S)cc1Cl 2.24 µM [inhibitor, full curve]
COc1cc(NC(=S)NCc2cccnc2)cc(OC)c1 3.55 µM [activator, full curve]
Cc1ccc(-c2csc(NC(=O)CCNC(=O)c3ccc(Cl)cc3)n2)cc1 22.4 µM [inhibitor, single point]

Potency, inactive:
Cn1c(C2CC(=O)N(Cc3ccccc3)C2)nc2ccccc21 (centres undefined)
O=C(NCc1nnc(SCC(=O)N2CCCC2)o1)c1ccccc1
Cc1nn(C(C)C(=O)NC2CCCCC2)c(=O)c2nn(-c3ccccc3)c(C)c12 (centres undefined)
CC(NC(=O)c1ccco1)c1nc(-c2ccccc2)no1 (centres undefined)
COc1ncc2nc(-c3ccccc3)c(=O)n(CCc3ccccc3)c2n1
CC(C)N1C(=O)C2C(c3ccccc3O)NC(C)(C(=O)O)C2C1=O (centres undefined)
CCn1c(NC(=O)C(C)C)c(-c2cccs2)c(=O)c2ccccc21
COc1ccc2c(c1)[nH]c1c(=O)n(/N=C/C3C(C)C=C(C)CC3C)c(=O)[nH]c12 (centres undefined)
O=C(CCc1ccccc1)Nc1ccnn1C1CCN(Cc2ccc(OCCO)cc2)CC1
C#CCOCCOCCOCCNc1nc(N2CCOCC2)nc(N2CCN(C(=O)Cn3cc(CCCN=C(N)N)nn3)CC2)n1
O=c1c(Cl)c(N2CCN(c3ccccc3)CC2)cnn1C12CC3CC(CC(C3)C1)C2
COc1cc(C(=O)NCc2nnc(SCC(=O)N3CCc4ccccc43)o2)cc(OC)c1OC
Cc1c(C(=O)NCCSCc2c(F)cccc2Cl)cnn1-c1ccc(F)cc1
O=C(NCCCN1CCCCC1)c1ccc(CS(=O)c2ccc(F)cc2)o1 (centres undefined)
CCOc1ccc(CN(C(=O)c2cccs2)C2CCS(=O)(=O)C2)cc1 (centres undefined)
Cc1nn(Cc2ccccc2Cl)c(C)c1NC(=O)c1cc(-c2ccc(F)cc2)on1
Nc1c(C(=O)O)sc2nc3c(cc12)CCCC3
